Test results as given in the supplement of paper PMC8728848.
This is one part of the list.

Columns and labels:
Assay in all cases: glycan array binding signal (z-score within array); higher = stronger binding
Settings in all cases: glycan notation: IUPAC condensed, linker removed
[1] = target: Neu5Gc(a2-8)Neu5Gc(a2-3)Gal(b1-4)GlcNAc(b1-3)Gal(b1-4)GlcNAc
Procedure, shortened: (§1)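 The binding signal is a Z-score computed within each array and averaged over linkers. Arrays of the same protein sequence at different concentrations or buffers were also averaged together. Data originate from 3228 arrays in the Consortium for Functional Glycomics database, kept only where the protein sequence was available.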

[2] = target: Neu5Gc(a2-8)Neu5Gc(a2-6)Gal(b1-4)GlcNAc
Procedure, shortened: as §1

[3] = target: Neu5Gc(b2-6)Gal(b1-4)GlcNAc
Procedure, shortened: as §1

B1: Epa19 (Candida glabrata) (protein)
chain: MGSSHHHHHHSSGLVPRGSHMASSKDPTRFPIGCSPQVLKTQPGLAVKLYSYGHPVPGCSYITYQYPDFPRSGYKKERKLADITGVNGKIDIDLKPNDPCRVLTGHLPSNYNYPDTLTYTNFTMILYGYFQPKVTGYHTFNLEADDLLFMNLGAGNAFDCCKAESTLDNFGNYQSYSLWGSDYAKANITVFLVSGVYYPIRLFYVNRDNNAVIDFSFTTEFDKEKVHDFTSYFFSASDGEQCPGSV
- glycan array binding signal (z-score) [1]: -1.06
- glycan array binding signal (z-score) [2]: -0.259
- glycan array binding signal (z-score) [3]: -0.317
